System: malondialdehyde (MDA) formation in primary astrocytes
Assay: LPS-induced lipid peroxidation (MDA formation) in primary astrocytes
Conditions: 50 μM

N[C@H](Cc1cccc(C(=O)OCc2ccc(-c3ccc(-c4ccc5c(c4)COC5=O)s3)cc2)c1)C(=O)O [PFI-PD]
Inhibitory effect on MDA formation, times greater than parent drug: ~2.0 | Inhibitory effect on MDA formation, times greater than α-tocopherol: 1.5

From publication PMC7515946, “Targeting of Perforin Inhibitor into the Brain Parenchyma Via a Prodrug Approach Can Decrease Oxidative Stress and Neuroinflammation and Improve Cell Survival” (Molecular Neurobiology, 2020)
